The text below walks through data of patent publication US20030104393A1, “Blood assessment of injury” (priority 2000, published 2003).

The source gives many values for each of these; only a part stands here.

For this assay, the system named is brain. The experiment in a line: Genes induced in the brain following kainic acid-induced seizures (microarray). It counts as in vivo, rat. Further details: key: NC = No Change. On the procedure: Status epilepticus is produced by intraperitoneally injecting a glutamate analogue/excitotoxin, kainic acid (10 mg/kg i.p.). Animals with kainate-induced seizures are observed following drug administration to ensure that they continue to have complex seizures over a 30 minute period.
All animals are allowed to survive for 24 hours following each treatment. At that time they are deeply anesthetized with ketamine (100 mg/kg) and xylazine (20 mg/kg) given intraperitoneally. Once anesthetized, the chest is opened and a direct cardiac puncture performed with a syringe and 10 cc of blood is aspirated. Immediately following removal of the blood, the animal is decapitated while deeply anesthetized and the brain removed.
One day after hypoxia, status epilepticus, hypoglycemia, ischemic stroke, and hemorrhagic stroke are produced in adult rats, RNA or protein is isolated from the blood cells and from the brains of the animals described in Example 1. The pattern of genes or proteins expressed in the blood cells following each of these types of injury—hypoxia, status epilepticus, hypoglycemia, ischemic stroke, and hemorrhagic stroke is captured on a commercially available microarray (Affymetrix chip). The pattern of gene or protein expression is defined using an expression method, which then forms a genomic or proteomic organ injury database, which is used in assessing injury.
Note that the genes induced in the blood are different from the genes induced in the brain. Therefore, different organs express different genes. In addition, the genes induced by hypoxia in the blood are different from the genes induced by hypoxia in the brain. That is, the same stimulus induces different genes in different organs. Lastly, even though similar genes are induced in the brain by ischemia (stroke) and kainic acid-induced seizures, there are many differences in the gene expression between the two. Therefore, the pattern of gene expression in the brains of ischemic animals is distinctive from the pattern of expression of the kainate animals, and this pattern can be used to diagnose the different conditions of stroke and status epilepticus, even though many of the same genes are induced in the two conditions.
In further support, the following Tables 5 and 6 list those genes induced in the brain following stroke, kainic induced seizures, and hypoxia as compared with untouched controls and sham-operated controls.

Take `C=C(C)[C@H]1CN[C@H](C(=O)O)[C@H]1CC(=O)O` [kainate, kainic acid]: the “Kainic Acid Seizure (fold change)” value is, setting by setting: (D10729_s_at Rat RNA for proteasome subunit RC) 4.9 fold change; (M92433exon#1 Rattus norvegicus nerve growth factor-induced clone C (NGFI-C) gene) “NC”; (d00575_at_ Rattus norvegicus RNA for pituitary glycoprotein hormone alpha-subunit precursor, complete cds) “NC”; (rc_aa859740 EST) “NC”; (rc_aa892578_ EST) 2.7 fold change; (rc_ai178267 EST) “NC”. Also, the “Kainic Acid Seizure (fold change)” value is listed as “NC” (rc_ai639149 EST), 3.2 fold change (x62952 R. norvegicus RNA for vimentin) and “NC” (x91810_at R. norvegicus RNA for Stat3 protein).
